Laboratory results from doi:10.1101/2023.05.04.539294.
These are yes or no findings as the source states them, for the method shown. In cells and extracts the contact can be indirect. Some results given as binding are weak or reduced against the parent protein; the word gives no strength. For some assays here: Sequences can lack the tags named with a protein.

By UniProt entry, the sequences of proteins in these tests, tags left out. Residues count along the entry.
UniProt O75251, residues 39-213: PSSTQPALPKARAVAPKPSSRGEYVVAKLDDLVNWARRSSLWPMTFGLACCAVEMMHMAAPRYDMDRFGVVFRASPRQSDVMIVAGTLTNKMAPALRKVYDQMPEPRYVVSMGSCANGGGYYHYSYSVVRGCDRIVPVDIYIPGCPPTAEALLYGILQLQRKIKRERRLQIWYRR

Assays:
[1] = target: T1, Acyl-CoA thioesterase 9 (ACOT9) (human (endogenous in HEK293E)) (UniProt Q9Y305); assay: proximity ligation
T1 sequence: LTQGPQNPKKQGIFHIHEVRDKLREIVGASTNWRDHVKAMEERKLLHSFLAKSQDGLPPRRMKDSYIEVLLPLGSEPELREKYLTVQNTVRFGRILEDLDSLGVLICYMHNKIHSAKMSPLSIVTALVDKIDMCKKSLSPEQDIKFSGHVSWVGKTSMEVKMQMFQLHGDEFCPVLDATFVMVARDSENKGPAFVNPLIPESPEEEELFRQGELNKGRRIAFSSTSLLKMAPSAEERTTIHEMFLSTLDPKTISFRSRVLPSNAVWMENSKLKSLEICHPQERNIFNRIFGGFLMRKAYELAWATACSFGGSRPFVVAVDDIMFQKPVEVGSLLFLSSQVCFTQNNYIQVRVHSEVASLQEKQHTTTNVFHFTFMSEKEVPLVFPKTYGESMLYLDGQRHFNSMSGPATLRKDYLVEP

[2] = target: T2, Recombinant ACOT9 fused to maltose binding protein (MBP-ACOT9) (UniProt Q9R0X4); assay: pull-down
T2 sequence: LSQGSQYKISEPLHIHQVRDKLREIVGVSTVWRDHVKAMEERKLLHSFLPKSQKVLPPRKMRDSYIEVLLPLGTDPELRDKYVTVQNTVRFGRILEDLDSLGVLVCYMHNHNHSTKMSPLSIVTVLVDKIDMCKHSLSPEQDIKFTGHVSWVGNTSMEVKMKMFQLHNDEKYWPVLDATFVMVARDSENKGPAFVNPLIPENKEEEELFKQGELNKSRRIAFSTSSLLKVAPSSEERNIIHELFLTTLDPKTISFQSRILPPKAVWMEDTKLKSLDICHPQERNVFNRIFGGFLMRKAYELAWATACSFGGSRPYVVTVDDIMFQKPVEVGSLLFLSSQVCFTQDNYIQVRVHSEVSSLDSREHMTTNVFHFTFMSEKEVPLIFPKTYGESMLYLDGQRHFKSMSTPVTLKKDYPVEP

binding [1]: binds
binding [2]: binds
Substance: NADH:ubiquinone oxidoreductase core subunit S7 (NDUFS7) (from UniProt O75251 39-213)
